Results are given in words; binding and its absence hold for the method and conditions named. Binding seen in cells or lysates may run through a third protein. Binding can be weak; no strength is given.
Target: T1, mouse p19ARF (murine p19Arf) (mouse) (UniProt Q64364)
T1 sequence: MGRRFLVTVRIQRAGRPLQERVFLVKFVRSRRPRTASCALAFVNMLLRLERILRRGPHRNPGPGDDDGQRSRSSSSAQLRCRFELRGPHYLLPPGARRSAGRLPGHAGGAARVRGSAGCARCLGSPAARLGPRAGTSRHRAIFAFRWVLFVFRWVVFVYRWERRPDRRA
Assay: co-IP with anti-ARF from transfected Cos-7 cells, immunoblot (FIG. 2E, right panel)

Sequences of proteins named here, by UniProt entry; tags and fusion partners are left off. A change or cut given only in a name is not applied to a line headed by its entry.
UniProt P01108: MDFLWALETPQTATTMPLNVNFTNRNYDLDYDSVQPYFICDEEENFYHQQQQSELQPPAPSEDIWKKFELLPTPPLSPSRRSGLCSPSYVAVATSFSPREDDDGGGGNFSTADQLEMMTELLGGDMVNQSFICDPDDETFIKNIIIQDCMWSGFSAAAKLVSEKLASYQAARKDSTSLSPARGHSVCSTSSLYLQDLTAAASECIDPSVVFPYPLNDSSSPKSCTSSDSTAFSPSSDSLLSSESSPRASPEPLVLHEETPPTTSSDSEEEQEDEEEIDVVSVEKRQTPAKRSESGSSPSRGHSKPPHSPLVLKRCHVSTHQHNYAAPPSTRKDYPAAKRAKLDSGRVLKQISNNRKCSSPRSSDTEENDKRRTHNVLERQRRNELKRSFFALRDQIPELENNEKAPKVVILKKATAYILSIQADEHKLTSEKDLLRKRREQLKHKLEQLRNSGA

c-Myc 1-144 (from UniProt P01108)
binding: binds

— US20060183130A1 (VANDERBILT UNIVERSITY, published 2006)
